For the assay, the system named is L1210 leukemia ip in BDF1 mice, survival T/C. As to the kind of experiment: NCI In Vivo Anticancer Drug Screen. Data for tumor model L1210 Leukemia (intraperitoneal) in B6D2F1 (BDF1) mice. Conditions: T/C endpoint: mean survival time, higher T/C = longer survival.
The mark [1] stands for this setting: dose: 25.0 mg/kg/injection, schedule: Q04DX003 (ip), vehicle: saline.
The mark [2] stands for this setting: dose: 100.0 mg/kg/injection, schedule: Q04DX003 (ip), vehicle: saline.
Setting [3] is: dose: 200.0 mg/kg/injection, schedule: Q04DX003 (ip), vehicle: saline.
Setting [4] is: dose: 400.0 mg/kg/injection, schedule: Q04DX003 (ip), vehicle: saline.
Setting [5] is: dose: 400.0 mg/kg/injection, schedule: Q04DX003 (ip), vehicle: Klucel (hydroxypropylcellulose) (HPC).
Setting [6] is: dose: 400.0 mg/kg/injection, schedule: Q01DX009 (ip), vehicle: Klucel (hydroxypropylcellulose) (HPC).
Setting [7] is: dose: 200.0 mg/kg/injection, schedule: Q01DX009 (ip), vehicle: saline with Tween-80.
Where [8] appears, read: dose: 400.0 mg/kg/injection, schedule: Q04DX002 (ip), vehicle: Klucel (hydroxypropylcellulose) (HPC).
Setting [9] is: dose: 50.0 mg/kg/injection, schedule: Q01DX009 (ip), vehicle: Klucel (hydroxypropylcellulose) (HPC).

The list shows only some results of the screen, not a fair sample: it gathers tests that were run many times, whatever their T/C, doses with no T/C, and many T/C values between a quarter and a half above the control. Other doses and runs of a compound stand elsewhere. T/C gives the treated animals as a percentage of the vehicle group. Some doses have a count of surviving animals in place of a T/C: the source holds a T/C of zero for them, seemingly a mark for toxic or unscored doses. Some survivor counts are full or nearly so, which does not show that the dose was tolerated: survival well below the control is almost never listed, so the zero probably covers shortened survival too. Counts of survivors are from the toxicity check (mostly the fifth day) where no day follows; animals may have died later. Schedule codes are those of the source, taken here to give the interval after Q, in days (D) or hours (H), and the number of doses after X. For survival time, this PubChem deposit counts one and a half times the control or more as active, and values a quarter to a half above the control carry no call in these data; other NCI protocols may use other cut-offs. Some schedule codes hold Z or #, which are not explained here.

For the molecule `O=C1C=C(O)C(=O)C=C1O`, the survivor count (dose: 20.0 mg/kg/injection, schedule: Q01DX009 (ip), vehicle: saline with Tween-80) is 4 of 6; the survivor count (dose: 25.0 mg/kg/injection, schedule: Q04DX002 (ip), vehicle: saline) was 1 of 3; the survivor count under setting [1] was 3 of 6; the survivor count (dose: 40.0 mg/kg/injection, schedule: Q01DX001 (ip), vehicle: saline) is on record as 3 of 6; the survivor count (dose: 50.0 mg/kg/injection, schedule: Q04DX002 (ip), vehicle: saline) was 1 of 3; the survivor count (dose: 50.0 mg/kg/injection, schedule: Q04DX003 (ip), vehicle: saline) is reported as 2 of 6. Moreover, the survivor count (dose: 80.0 mg/kg/injection, schedule: Q01DX001 (ip), vehicle: saline) is recorded as 0 of 6; the survivor count (dose: 100.0 mg/kg/injection, schedule: Q04DX002 (ip), vehicle: saline) was 0 of 3; the survivor count under setting [2] was 0 of 6; the survivor count (dose: 200.0 mg/kg/injection, schedule: Q04DX002 (ip), vehicle: saline) was 0 of 3; the survivor count under setting [3] is 0 of 6; the survivor count (dose: 400.0 mg/kg/injection, schedule: Q04DX002 (ip), vehicle: saline) is 0 of 3. Further, the survivor count under setting [4] is on record as 0 of 6.

For `C=CCc1ccc(OCCOCCNC2C(C)CCCC2(C)C)c(OC)c1` (configuration not stated), the survivor count reads like this: (dose: 100.0 mg/kg/injection, schedule: Q04DX003 (ip), vehicle: Klucel (hydroxypropylcellulose) (HPC)) 0 of 6; (dose: 200.0 mg/kg/injection, schedule: Q04DX003 (ip), vehicle: Klucel (hydroxypropylcellulose) (HPC)) 0 of 6; under setting [5], 0 of 6.

For the molecule `CCOC(=O)C(C)Cl` (configuration not stated), the survivor count under setting [6] is 2 of 6.

As to `COc1ccc2cc[n+](C)c(Cc3ccc(OC)c(Oc4ccc(Cc5c(OC)ccc6cc[n+](C)cc56)cc4)c3)c2c1`, the survivor count runs as follows: (dose: 100.0 mg/kg/injection, schedule: Q04DX003 (ip), vehicle: other) 0 of 3; (dose: 200.0 mg/kg/injection, schedule: Q04DX003 (ip), vehicle: other) 0 of 3; (dose: 400.0 mg/kg/injection, schedule: Q04DX003 (ip), vehicle: other) 0 of 3.

`O=C(/C=C\c1ccccc1)/C=C/c1ccccc1`: the survivor count under setting [6] was 6 of 6.

For `CC(CCN1CCOCC1)(CNC1=NCCN1)c1cccc2ccccc12` (configuration not stated), the survivor count runs as follows: (dose: 100.0 mg/kg/injection, schedule: Q01DX009 (ip), vehicle: saline with Tween-80) 0 of 6; under setting [7], 0 of 6; (dose: 400.0 mg/kg/injection, schedule: Q01DX009 (ip), vehicle: saline with Tween-80) 0 of 6.

In the case of `NC(=O)Oc1c(Cl)cc(Cl)c(Cl)c1[N+](=O)[O-]`, the survivor count is recorded as 1 of 3 (dose: 100.0 mg/kg/injection, schedule: Q04DX002 (ip), vehicle: Klucel (hydroxypropylcellulose) (HPC)); 0 of 3 (dose: 200.0 mg/kg/injection, schedule: Q04DX002 (ip), vehicle: Klucel (hydroxypropylcellulose) (HPC)); 0 of 3 under setting [8].

`CCCC(CNC1CCCCC1)OC(=O)c1ccc(N)cc1` (configuration not stated): the survivor count is, setting by setting: (dose: 150.0 mg/kg/injection, schedule: Q01DX001 (ip), vehicle: other) 3 of 6; (dose: 300.0 mg/kg/injection, schedule: Q01DX001 (ip), vehicle: other) 0 of 6.

Regarding `CN(C)/N=N/c1nc[nH]c1C(=O)NCCc1ccccc1`, for the setting “dose: 400.0 mg/kg/injection, schedule: Q01DX001 (ip), vehicle: other”, the survivor count was 0 of 6.

`O=[N+]([O-])c1cccnc1Cl`: under setting [5], the survivor count is 0 of 6.

Consider `O=C(Nc1ccc(C2=NCCN2)cc1)c1ccc(CNc2ccc(C3=NCCN3)cc2)cc1`, for which the T/C (dose: 37.0 mg/kg/injection, schedule: Q01DX Z (ip), vehicle: water) was 145 % of control.

On to `Oc1c(CN2CCCC2)cc(Nc2cc(/C=C/c3ccc(Cl)cc3)nc(/C=C\c3ccc(Cl)cc3)n2)cc1CN1CCCC1`, for which the survivor count by setting is: (dose: 25.0 mg/kg/injection, schedule: Q01DX009 (ip), vehicle: Klucel (hydroxypropylcellulose) (HPC)) 3 of 6; under setting [1], 6 of 6; under setting [9], 0 of 6; under setting [2], 1 of 6; under setting [3], 0 of 6; under setting [4], 0 of 6.

In the case of `CC1(C)C[N+](Cc2ccccc2)(Cc2ccccc2)C1`, the survivor count is, setting by setting: (dose: 12.5 mg/kg/injection, schedule: Q01DX009 (ip), vehicle: saline) 6 of 6; (dose: 25.0 mg/kg/injection, schedule: Q01DX009 (ip), vehicle: saline) 0 of 6; under setting [2], 0 of 6; under setting [3], 0 of 6; under setting [4], 0 of 6.

`O=c1cc(CCl)[nH]nc1CCl`: the T/C was 145 % of control (dose: 14.5 mg/kg/injection, schedule: Q04DX003 (ip), vehicle: saline with Tween-80); 130 % of control (dose: 33.0 mg/kg/injection, schedule: Q04DX003 (ip), vehicle: saline with Tween-80); 132 % of control (dose: 50.0 mg/kg/injection, schedule: Q04DX003 (ip), vehicle: saline with Tween-80, evaluated on day 20); 134 % of control (dose: 50.0 mg/kg/injection, schedule: Q04DX003 (ip), vehicle: saline with Tween-80, evaluated on day 30). For the same molecule, the survivor count (dose: 100.0 mg/kg/injection, schedule: Q04DX003 (ip), vehicle: saline with Tween-80) was 6 of 6; the survivor count (dose: 200.0 mg/kg/injection, schedule: Q04DX003 (ip), vehicle: saline with Tween-80) was 0 of 5; the survivor count (dose: 400.0 mg/kg/injection, schedule: Q04DX003 (ip), vehicle: saline with Tween-80) is on record as 1 of 6.

For the molecule `COc1ccc2c3c1OC1C=CC(O)C4C(C2)N(C)CCC314` (configuration not stated), the survivor count (dose: 400.0 mg/kg/injection, schedule: Q01DX001 (ip), vehicle: saline) was 3 of 6.

On to `CC(C)C1CCC2(CC1)CC(=O)N(CCC[N+](C)(C)C)C(=O)C2`, for which the survivor count is 2 of 4 (dose: 100.0 mg/kg/injection, schedule: Q01DX001 (ip), vehicle: carboxymethylcellulose (CMC)); 0 of 4 (dose: 200.0 mg/kg/injection, schedule: Q01DX001 (ip), vehicle: carboxymethylcellulose (CMC)); 0 of 4 (dose: 400.0 mg/kg/injection, schedule: Q01DX001 (ip), vehicle: carboxymethylcellulose (CMC)).

Turning to `Nc1cccc(C(F)(F)F)c1`, the survivor count (dose: 200.0 mg/kg/injection, schedule: Q01DX009 (ip), vehicle: saline) is listed as 3 of 6 and the survivor count (dose: 400.0 mg/kg/injection, schedule: Q01DX009 (ip), vehicle: saline) was 0 of 6.

With `Cc1csc2n1cc1cccc[n+]12`, the survivor count was 1 of 3 (dose: 100.0 mg/kg/injection, schedule: Q04DX002 (ip), vehicle: other); 1 of 3 (dose: 200.0 mg/kg/injection, schedule: Q04DX002 (ip), vehicle: other); 0 of 3 (dose: 400.0 mg/kg/injection, schedule: Q04DX002 (ip), vehicle: other).

On to `O=c1oc(-c2ccccc2Cl)nc2cc(Cl)ccc12`, for which the survivor count under setting [7] is 3 of 6.

As to `CC(=O)n1c2ccccc2c2nc3cnccc3nc21`, the survivor count (dose: 128.0 mg/kg/injection, schedule: Q01DX005 (ip), vehicle: saline) is 2 of 6.

Take `COc1ccc(OC)c(/C=C/c2ccc(NC(=O)Nc3ccccc3Cl)cc2)c1`: the survivor count is 6 of 6 under setting [9]; 6 of 6 (dose: 100.0 mg/kg/injection, schedule: Q01DX009 (ip), vehicle: Klucel (hydroxypropylcellulose) (HPC)); 6 of 6 (dose: 200.0 mg/kg/injection, schedule: Q01DX009 (ip), vehicle: Klucel (hydroxypropylcellulose) (HPC)); 3 of 3 under setting [8].

`CN(C)CCSCCN1c2ccccc2Sc2ccc(Cl)cc21`: the survivor count under setting [3] was 1 of 6 and the survivor count under setting [4] was 0 of 6.

The record behind these values is PubChem BioAssay AID248 (DTP/NCI, 2004).
